For at least one entry, the source does not settle the construct or the ends of the probe.
Tested on: LUX2-MBP (Glycine max)
Test: EMSA
Conditions: LightShift Chemiluminescent EMSA Kit (Pierce) binding buffer, composition, salt and pH not stated; room temperature 20 min; 6% native PAGE; recombinant protein; protein details: MBP; label: biotin

Sequence: TTGACATTCATATCCTTTGTATTTCAATTAGATTAGATATGTTCTACGGA (double strand) [probe-ENOD40 (P1 region)]
- binding result: binds

From paper PMC12120873, “Evening complex component ELF3 interacts with LUX proteins to repress soybean root nodulation”
